Test system: paclitaxel binding site of microtubules
Assay: Binding of Flutax-2 to cross-linked microtubules by fluorescence anisotropy
Design: species or system bovine
Conditions: 495 nm band, emission 520 nm, 25° C.
Description: The intensity of fluorescence of Flutax-2 changes very little with the binding to microtubules. There is a small change in the excitation maximum from 494 nm to 495 nm (isosbestic point at 500 nm ) and a blue shift in emission from 523 nm to 520 nm (not shown here; isosbestic point at 525 nm; Diaz, J. F. et al.). […] The excitation anisotropy spectrum of a 50 nM solution of microtubule sites/Flutax-2 was compared with the spectrum of a similar solution in which the binding sites were blocked by an excess of paclitaxel and of free Flutax-2. […] The anisotropy values determined for the 495 nm band (emission 520 nm; GAB buffer containing glycerol, 25° C.) were: free Flutax-2 (50 nm ), rmin=0.055; in the presence of microtubules blocked with paclitaxel, r=0.060; Flutax-2 specifically bound to the microtubules, rmax=0.29 (the last was determined by valuation of 50 nm Flutax-2 with growing concentrations of microtubules). […]
Tubulin from bovine brain was purified and stored, and its concentration was measured as has been described (Andreu, J. M. et al.). […]
Fluorescence spectra were obtained corrected with a Fluorolog-3-221 photon count instrument (Jobin Yvon-Spex, Longlumean, France), with an emission bandwidth of 5 nm and excitation of […] at 25° C. […] The multiple measurements of anisotropy were made with a PolarStar microplate reader (BMG Labtechnologies, Offenburg, Germany) at 25° C. […]

Question: Which “fluorescence anisotropy rmin, free Flutax-2” value (GAB buffer containing glycerol, free, 50 nm) does the source give for `CC(=O)O[C@H]1C(=O)[C@]2(C)[C@@H](OC(=O)[C@H](C)NC(=O)c3ccc4c(c3)C(=O)OC43c4cc(F)c(O)cc4Oc4cc(O)c(F)cc43)C[C@H]3OC[C@@]3(OC(C)=O)[C@H]2[C@H](OC(=O)c2ccccc2)[C@]2(O)C[C@H](OC(=O)[C@H](O)[C@@H](NC(=O)c3ccccc3)c3ccccc3)C(C)=C1C2(C)C` [Flutax-2, 7-O-[N-(2,7-difluoro-4′-fluoresceincarbonyl)-L-alanyl]paclitaxel] here?
Answer: The value was 0.055.

Question: And the “fluorescence anisotropy rmax, specifically bound to the microtubules” value (GAB buffer, valuation with growing concentrations of microtubules)?
Answer: The value was 0.29.
